Measurements reported in PubChem BioAssay AID504774 (Drosophila RNAi Screening Center, 2011).
The deposit covers about 23,000 reagents; this is an unselected part of those that have a named target and a result. 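Values are quantile-normalised luminescence on an arbitrary scale; higher means more cells surviving MMS.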 The numbers tell different reagents against one gene apart. A plus sign joins genes that one reagent is predicted to hit. Further read-outs or replicates are left out here.

Screen: 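Fly genes whose loss alters survival after alkylation damage to DNA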 (primary screen)
System: Drosophila Kc167 cells
Reagents: long dsRNA against Drosophila genes, about 0.25 µg dsRNA per well
Time to read-out: about 6 days: 3 days knock-down, then 3 days with or without MMS
Treatment: methyl methanesulphonate 0.004% (w/v) for 3 days after knock-down
Read-out: 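Viability in wells given MMS, read as ATP luminescence, normalised by quantiles plate by plate and averaged across replicates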
Reading the numbers: mean viability with MMS and viability with MMS: higher = more surviving cells after MMS

target | reagent no. | mean viability with MMS | viability with MMS, replicate 1
Nfs1 | 1 | 3.37e6 | 3.95e6
CG12061 | 1 | 3.50e6 | 3.97e6
Rdh | 1 | 2.99e6 | 3.55e6
Rdh | 2 | 3.29e6 | 3.48e6
CG13984 | 1 | 3.55e6 | 3.91e6
CG12795 | 1 | 3.66e6 | 4.22e6
CG31998 | 1 | 3.53e6 | 4.07e6
CG31998 | 2 | 3.50e6 | 3.97e6
NPF | 1 | 3.54e6 | 4.09e6
CG15676 | 1 | 3.55e6 | 4.03e6
Grx1t | 1 | 3.46e6 | 3.95e6
CG14042 + SP555 | 1 | 3.33e6 | 3.64e6
CG14042 + SP555 | 2 | 3.62e6 | 4.01e6
CG30357 | 1 | 3.61e6 | 4.08e6
CG30056 | 1 | 3.33e6 | 3.81e6
TAF1B | 1 | 3.49e6 | 3.91e6
Prp3 | 1 | 3.16e6 | 3.63e6
Gad1 | 1 | 3.48e6 | 3.94e6
CG5011 | 1 | 3.62e6 | 4.08e6
CG5011 | 2 | 3.67e6 | 4.33e6
Nadk2 | 1 | 3.56e6 | 4.02e6
Brd7-9 | 1 | 3.47e6 | 3.75e6
CG3168 | 1 | 3.03e6 | 3.84e6
CAH5 | 1 | 3.24e6 | 3.65e6
CG32473 | 1 | 3.53e6 | 3.93e6
CG32473 | 2 | 3.42e6 | 3.90e6
CG3376 | 1 | 3.68e6 | 4.09e6
CG32727 | 1 | 3.59e6 | 4.11e6
Or67c | 1 | 3.45e6 | 3.91e6
Usp12-46 | 1 | 3.57e6 | 4.07e6
E(bx) | 1 | 3.44e6 | 3.91e6
E(bx) | 2 | 3.22e6 | 3.66e6
E(bx) | 3 | 3.00e6 | 3.64e6
kappaTry | 1 | 3.49e6 | 4.07e6
BomT2 | 1 | 3.91e6 | 4.19e6
CG12374 | 1 | 3.69e6 | 4.01e6
nonA-l | 1 | 3.55e6 | 4.12e6
Sh | 1 | 2.91e6 | 3.52e6
Sh | 2 | 3.61e6 | 4.02e6
Sh | 3 | 3.53e6 | 3.83e6
Sh | 4 | 3.56e6 | 4.00e6
Sh | 5 | 3.80e6 | 4.26e6
Svip | 1 | 3.44e6 | 3.93e6
CG9331 | 1 | 3.65e6 | 4.30e6
CG14333 (retired record) | 1 | 3.54e6 | 3.95e6
CG14333 (retired record) | 2 | 3.83e6 | 4.42e6
ds | 1 | 3.55e6 | 3.97e6
CG4829 | 1 | 3.68e6 | 4.14e6
CG6428 | 1 | 3.69e6 | 4.23e6
CG31776 | 1 | 3.63e6 | 4.04e6
SuUR | 1 | 3.72e6 | 4.03e6
CCKLR-17D3 | 1 | 3.85e6 | 4.25e6
CCKLR-17D3 | 2 | 3.49e6 | 4.00e6
CG15422 | 1 | 3.58e6 | 3.93e6
CG31371 | 1 | 3.57e6 | 4.06e6
Nox | 1 | 3.59e6 | 3.99e6
Nox | 2 | 3.53e6 | 3.96e6
CG13615 | 1 | 3.58e6 | 4.03e6
CG31663 | 1 | 3.57e6 | 4.04e6
CG31663 | 2 | 3.73e6 | 4.36e6
CG31663 | 3 | 1.86e6 | 4.21e6
CG31663 | 4 | 3.52e6 | 3.97e6
CR42745 (retired record) | 1 | 3.46e6 | 3.92e6
CG33108 | 1 | 3.65e6 | 4.17e6
TfIIEalpha | 1 | 3.28e6 | 3.76e6
ckd | 1 | 3.60e6 | 3.98e6
CG14731 | 1 | 3.50e6 | 4.01e6
NfI | 1 | 3.56e6 | 4.04e6
CG30114 | 1 | 3.43e6 | 3.88e6
lilli | 1 | 3.86e6 | 4.17e6
phyl | 1 | 3.50e6 | 3.92e6
CG10357 | 1 | 3.60e6 | 4.07e6
CG33181 | 1 | 3.57e6 | 4.03e6
CG33181 | 2 | 3.39e6 | 3.86e6
He + NimB5 | 1 | 3.42e6 | 3.91e6
CG32985 | 1 | 3.54e6 | 3.98e6
CG9162 (retired record) | 1 | 3.76e6 | 4.35e6
CG14645 | 1 | 3.62e6 | 4.16e6
Cyp313a1 | 1 | 3.76e6 | 4.22e6
dwg | 1 | 3.49e6 | 3.97e6
Polr3K + Tcs1 | 1 | 3.64e6 | 4.01e6
Tsf3 | 1 | 3.47e6 | 3.86e6
key | 1 | 2.89e6 | 2.70e6
Sema2a | 1 | 3.51e6 | 3.88e6
Sgt1 | 1 | 3.46e6 | 3.93e6
CG13560 | 1 | 3.66e6 | 4.34e6
CG7685 | 1 | 3.37e6 | 3.74e6

Reformatted: 12 of the entries above
CG14042 + SP555 #1
- mean viability with MMS: 3.33e6
- viability with MMS, replicate 1: 3.64e6

CG14042 + SP555 #2
- mean viability with MMS: 3.62e6
- viability with MMS, replicate 1: 4.01e6

CG30357
- mean viability with MMS: 3.61e6
- viability with MMS, replicate 1: 4.08e6

CG30056
- mean viability with MMS: 3.33e6
- viability with MMS, replicate 1: 3.81e6

TAF1B
- mean viability with MMS: 3.49e6
- viability with MMS, replicate 1: 3.91e6

Prp3
- mean viability with MMS: 3.16e6
- viability with MMS, replicate 1: 3.63e6

Gad1
- mean viability with MMS: 3.48e6
- viability with MMS, replicate 1: 3.94e6

CG5011 #1
- mean viability with MMS: 3.62e6
- viability with MMS, replicate 1: 4.08e6

CG5011 #2
- mean viability with MMS: 3.67e6
- viability with MMS, replicate 1: 4.33e6

Nadk2
- mean viability with MMS: 3.56e6
- viability with MMS, replicate 1: 4.02e6

Brd7-9
- mean viability with MMS: 3.47e6
- viability with MMS, replicate 1: 3.75e6

CG3168
- mean viability with MMS: 3.03e6
- viability with MMS, replicate 1: 3.84e6
